Source: patent publication US12427149B2, “Methods and compositions for the prevention and treatment of hearing loss” (Ting Therapeutics, Inc., priority 2019, dated 2025)
For at least one compound, name, drawing or mass did not settle the structure.

Tested on: mouse cochlear explants
Conditions: cisplatin 150 μM
Method: Dab alone or Dab added 1 h before cisplatin (150 μM) to P3 FVB cochlear explants for 24 h.
Now referring to FIG. 9, testing of a B-Raf/MEK1/2 inhibitor combination in mouse cochlear explant cultures. Compounds alone or combination of the compounds were added 1 h before cisplatin (150 μM) to P3 FVB cochlear explants for 24 h, and number of outer hair cells per 160 μm of middle turn regions of the cochlea were counted by phalloidin staining, mean±SEM, P=*<0.05, P=***<0.001, compared to cisplatin alone by unpaired two-tailed Student's t-test.
Methods of using a zebrafish model system to evaluate small molecules capable of decreasing, inhibiting or preventing sensory hair cell damage or death are provided. […] Compounds alone or compounds added 1 h before cisplatin (150 μM) to P3 FVB cochlear explants for 24 h, and number of outer hair cells per 160 μm of middle turn regions of the cochlea were counted by phalloidin staining, mean±SEM, P=*<0.05, P=**<0.005, ***P<0.0005 compared to cisplatin alone by unpaired two-tailed Student's t-test.
Compounds alone (purple bar) or combination of the compounds were added 1 h before cisplatin (150 μM) to P3 FVB cochlear explants for 24 hrs, and number of outer hair cells per 160 μm of middle turn regions of the cochlea were counted by phalloidin staining, mean±SEM, P=*<0.05, P=**<0.005, compared to cisplatin alone by unpaired two-tailed Student's t-test.

SMILES | protection against cisplatin-induced hair cell loss/death in mouse cochlear explants (in words)
CC(=O)Nc1cccc(-n2c(=O)n(C3CC3)c(=O)c3c(Nc4ccc(I)cc4F)n(C)c(=O)c(C)c32)c1 [Trametinib] | protected
CCCS(=O)(=O)Nc1ccc(F)c(C(=O)c2c[nH]c3ncc(-c4ccc(Cl)cc4)cc23)c1F [Vemurafenib] | protected
